In the supplement of paper PMC10849652:
The list shows a part of the results.

The chains behind the UniProt entries cited, without tags or fusion partners. Where a name states a change or a piece, a line headed by the entry shows the natural chain unless it says otherwise.
UniProt Q96FN4: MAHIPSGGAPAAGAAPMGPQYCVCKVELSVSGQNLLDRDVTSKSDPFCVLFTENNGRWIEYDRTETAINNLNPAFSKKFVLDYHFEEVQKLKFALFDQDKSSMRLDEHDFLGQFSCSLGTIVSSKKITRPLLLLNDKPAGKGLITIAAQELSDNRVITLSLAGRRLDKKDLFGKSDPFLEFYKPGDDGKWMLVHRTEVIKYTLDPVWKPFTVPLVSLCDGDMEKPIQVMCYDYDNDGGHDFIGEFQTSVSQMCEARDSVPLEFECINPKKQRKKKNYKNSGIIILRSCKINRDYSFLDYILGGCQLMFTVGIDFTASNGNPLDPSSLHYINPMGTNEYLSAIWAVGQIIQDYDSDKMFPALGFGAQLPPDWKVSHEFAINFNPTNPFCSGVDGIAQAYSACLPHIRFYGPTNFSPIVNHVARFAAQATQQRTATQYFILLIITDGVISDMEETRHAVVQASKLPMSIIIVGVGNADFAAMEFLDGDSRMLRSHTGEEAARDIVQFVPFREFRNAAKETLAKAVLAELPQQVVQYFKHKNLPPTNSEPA
UniProt Q9Y6N1: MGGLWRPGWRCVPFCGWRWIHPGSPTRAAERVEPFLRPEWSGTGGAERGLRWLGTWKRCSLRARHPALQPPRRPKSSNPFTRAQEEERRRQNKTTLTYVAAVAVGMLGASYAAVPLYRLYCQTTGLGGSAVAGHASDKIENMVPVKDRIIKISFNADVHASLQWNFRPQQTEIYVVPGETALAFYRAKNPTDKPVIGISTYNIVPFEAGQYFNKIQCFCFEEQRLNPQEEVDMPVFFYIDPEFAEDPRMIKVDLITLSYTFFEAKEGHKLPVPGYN
UniProt Q9UBF2: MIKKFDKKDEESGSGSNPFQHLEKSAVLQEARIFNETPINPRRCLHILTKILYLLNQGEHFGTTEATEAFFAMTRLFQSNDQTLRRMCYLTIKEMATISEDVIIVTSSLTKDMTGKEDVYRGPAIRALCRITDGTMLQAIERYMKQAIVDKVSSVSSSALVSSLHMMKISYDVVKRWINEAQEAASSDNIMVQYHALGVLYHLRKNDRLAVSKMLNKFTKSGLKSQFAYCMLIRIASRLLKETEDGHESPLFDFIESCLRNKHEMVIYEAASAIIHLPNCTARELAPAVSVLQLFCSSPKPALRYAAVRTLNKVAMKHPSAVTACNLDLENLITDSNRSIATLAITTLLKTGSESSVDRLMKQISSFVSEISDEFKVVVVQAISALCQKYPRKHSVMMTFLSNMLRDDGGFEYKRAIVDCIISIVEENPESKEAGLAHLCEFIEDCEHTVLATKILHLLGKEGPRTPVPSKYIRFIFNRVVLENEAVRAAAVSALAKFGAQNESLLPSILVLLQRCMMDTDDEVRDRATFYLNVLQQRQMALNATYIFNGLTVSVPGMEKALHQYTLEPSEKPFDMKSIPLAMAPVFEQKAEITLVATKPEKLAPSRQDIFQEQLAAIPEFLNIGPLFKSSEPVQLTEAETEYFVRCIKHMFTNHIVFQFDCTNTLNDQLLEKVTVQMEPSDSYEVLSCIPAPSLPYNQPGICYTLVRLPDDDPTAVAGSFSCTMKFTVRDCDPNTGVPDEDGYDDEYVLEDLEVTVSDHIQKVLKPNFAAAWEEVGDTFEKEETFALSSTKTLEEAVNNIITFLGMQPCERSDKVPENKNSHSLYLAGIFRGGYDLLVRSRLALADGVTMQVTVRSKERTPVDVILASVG
UniProt Q9P000, whole entry, looked up: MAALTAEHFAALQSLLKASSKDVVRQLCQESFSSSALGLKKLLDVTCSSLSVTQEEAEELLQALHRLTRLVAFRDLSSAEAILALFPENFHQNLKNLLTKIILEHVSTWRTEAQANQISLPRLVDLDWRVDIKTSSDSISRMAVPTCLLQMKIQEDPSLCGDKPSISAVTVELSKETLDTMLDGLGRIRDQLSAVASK
UniProt Q8N752: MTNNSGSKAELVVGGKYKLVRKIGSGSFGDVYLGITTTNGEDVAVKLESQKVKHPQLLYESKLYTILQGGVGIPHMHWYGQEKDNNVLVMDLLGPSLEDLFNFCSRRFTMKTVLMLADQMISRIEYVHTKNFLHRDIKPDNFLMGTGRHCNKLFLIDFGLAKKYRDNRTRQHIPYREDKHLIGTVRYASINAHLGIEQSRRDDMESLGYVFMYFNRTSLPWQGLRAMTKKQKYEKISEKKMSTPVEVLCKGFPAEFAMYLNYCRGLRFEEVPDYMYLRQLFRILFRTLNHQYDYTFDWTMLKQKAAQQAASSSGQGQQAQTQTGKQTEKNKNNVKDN
UniProt Q9H9Q2: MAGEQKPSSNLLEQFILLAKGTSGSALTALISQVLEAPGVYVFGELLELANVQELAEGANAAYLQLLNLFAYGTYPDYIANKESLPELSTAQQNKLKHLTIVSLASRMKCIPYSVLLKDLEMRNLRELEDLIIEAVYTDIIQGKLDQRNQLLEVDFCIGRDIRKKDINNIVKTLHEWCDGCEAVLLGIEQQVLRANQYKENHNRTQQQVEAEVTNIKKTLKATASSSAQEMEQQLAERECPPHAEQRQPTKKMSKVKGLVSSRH
UniProt P14406, whole entry, looked up: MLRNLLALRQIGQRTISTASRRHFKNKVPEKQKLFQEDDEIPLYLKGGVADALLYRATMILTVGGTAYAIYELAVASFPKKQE
UniProt Q7L5N1: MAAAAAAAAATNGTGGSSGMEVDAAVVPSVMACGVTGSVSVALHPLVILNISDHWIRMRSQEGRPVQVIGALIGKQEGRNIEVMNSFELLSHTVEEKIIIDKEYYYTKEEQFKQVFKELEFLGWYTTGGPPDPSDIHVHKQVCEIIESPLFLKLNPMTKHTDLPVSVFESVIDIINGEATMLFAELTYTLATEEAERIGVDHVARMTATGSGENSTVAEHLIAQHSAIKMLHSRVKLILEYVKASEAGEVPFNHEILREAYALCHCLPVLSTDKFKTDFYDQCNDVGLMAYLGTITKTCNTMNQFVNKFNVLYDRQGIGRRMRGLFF
UniProt Q9H3G5: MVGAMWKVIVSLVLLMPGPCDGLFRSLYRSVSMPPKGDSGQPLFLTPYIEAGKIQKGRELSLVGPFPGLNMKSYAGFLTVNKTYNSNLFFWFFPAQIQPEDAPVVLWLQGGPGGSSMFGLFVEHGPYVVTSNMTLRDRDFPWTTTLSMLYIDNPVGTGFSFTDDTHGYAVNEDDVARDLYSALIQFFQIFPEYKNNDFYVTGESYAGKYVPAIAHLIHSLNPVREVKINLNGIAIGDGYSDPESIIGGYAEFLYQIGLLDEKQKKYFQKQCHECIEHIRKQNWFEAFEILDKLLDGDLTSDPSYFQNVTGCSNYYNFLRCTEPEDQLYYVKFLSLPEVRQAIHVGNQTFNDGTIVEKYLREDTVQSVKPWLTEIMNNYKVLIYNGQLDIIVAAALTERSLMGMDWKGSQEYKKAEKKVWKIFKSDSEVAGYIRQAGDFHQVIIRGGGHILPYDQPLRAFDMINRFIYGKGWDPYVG
UniProt Q9P021, whole entry, looked up: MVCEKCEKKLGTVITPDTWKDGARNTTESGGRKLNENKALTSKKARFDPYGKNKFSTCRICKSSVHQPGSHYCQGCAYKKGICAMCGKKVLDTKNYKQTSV
UniProt Q5HYK3: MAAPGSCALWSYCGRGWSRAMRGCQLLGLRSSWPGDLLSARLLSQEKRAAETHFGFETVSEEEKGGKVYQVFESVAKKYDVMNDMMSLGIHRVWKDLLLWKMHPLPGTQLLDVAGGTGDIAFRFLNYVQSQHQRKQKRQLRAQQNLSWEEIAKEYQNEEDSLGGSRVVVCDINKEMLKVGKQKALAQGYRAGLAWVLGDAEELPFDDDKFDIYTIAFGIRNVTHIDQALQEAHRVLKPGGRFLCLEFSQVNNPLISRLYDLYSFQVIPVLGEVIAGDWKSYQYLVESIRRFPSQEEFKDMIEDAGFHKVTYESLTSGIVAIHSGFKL
UniProt Q92905, whole entry, looked up: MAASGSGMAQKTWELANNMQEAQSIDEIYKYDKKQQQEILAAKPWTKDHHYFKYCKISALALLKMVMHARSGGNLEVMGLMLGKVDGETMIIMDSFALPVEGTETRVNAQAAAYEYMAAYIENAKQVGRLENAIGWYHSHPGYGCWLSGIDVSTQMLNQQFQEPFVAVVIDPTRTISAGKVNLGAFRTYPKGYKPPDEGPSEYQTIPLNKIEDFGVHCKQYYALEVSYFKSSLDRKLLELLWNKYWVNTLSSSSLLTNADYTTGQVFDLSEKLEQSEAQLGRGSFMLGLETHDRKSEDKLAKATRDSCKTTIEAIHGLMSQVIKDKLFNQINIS
UniProt Q96HD1: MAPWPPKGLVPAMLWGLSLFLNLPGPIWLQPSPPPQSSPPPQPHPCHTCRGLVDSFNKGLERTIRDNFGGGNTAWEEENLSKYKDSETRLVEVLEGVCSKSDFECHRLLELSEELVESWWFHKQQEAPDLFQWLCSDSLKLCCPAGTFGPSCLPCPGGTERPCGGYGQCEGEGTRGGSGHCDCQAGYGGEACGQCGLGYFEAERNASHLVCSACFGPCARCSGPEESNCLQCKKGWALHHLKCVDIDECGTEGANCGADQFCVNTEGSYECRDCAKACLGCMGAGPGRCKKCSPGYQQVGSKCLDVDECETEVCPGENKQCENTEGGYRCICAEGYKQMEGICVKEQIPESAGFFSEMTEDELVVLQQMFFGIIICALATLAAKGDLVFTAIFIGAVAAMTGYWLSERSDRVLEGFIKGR
UniProt Q5TZA2: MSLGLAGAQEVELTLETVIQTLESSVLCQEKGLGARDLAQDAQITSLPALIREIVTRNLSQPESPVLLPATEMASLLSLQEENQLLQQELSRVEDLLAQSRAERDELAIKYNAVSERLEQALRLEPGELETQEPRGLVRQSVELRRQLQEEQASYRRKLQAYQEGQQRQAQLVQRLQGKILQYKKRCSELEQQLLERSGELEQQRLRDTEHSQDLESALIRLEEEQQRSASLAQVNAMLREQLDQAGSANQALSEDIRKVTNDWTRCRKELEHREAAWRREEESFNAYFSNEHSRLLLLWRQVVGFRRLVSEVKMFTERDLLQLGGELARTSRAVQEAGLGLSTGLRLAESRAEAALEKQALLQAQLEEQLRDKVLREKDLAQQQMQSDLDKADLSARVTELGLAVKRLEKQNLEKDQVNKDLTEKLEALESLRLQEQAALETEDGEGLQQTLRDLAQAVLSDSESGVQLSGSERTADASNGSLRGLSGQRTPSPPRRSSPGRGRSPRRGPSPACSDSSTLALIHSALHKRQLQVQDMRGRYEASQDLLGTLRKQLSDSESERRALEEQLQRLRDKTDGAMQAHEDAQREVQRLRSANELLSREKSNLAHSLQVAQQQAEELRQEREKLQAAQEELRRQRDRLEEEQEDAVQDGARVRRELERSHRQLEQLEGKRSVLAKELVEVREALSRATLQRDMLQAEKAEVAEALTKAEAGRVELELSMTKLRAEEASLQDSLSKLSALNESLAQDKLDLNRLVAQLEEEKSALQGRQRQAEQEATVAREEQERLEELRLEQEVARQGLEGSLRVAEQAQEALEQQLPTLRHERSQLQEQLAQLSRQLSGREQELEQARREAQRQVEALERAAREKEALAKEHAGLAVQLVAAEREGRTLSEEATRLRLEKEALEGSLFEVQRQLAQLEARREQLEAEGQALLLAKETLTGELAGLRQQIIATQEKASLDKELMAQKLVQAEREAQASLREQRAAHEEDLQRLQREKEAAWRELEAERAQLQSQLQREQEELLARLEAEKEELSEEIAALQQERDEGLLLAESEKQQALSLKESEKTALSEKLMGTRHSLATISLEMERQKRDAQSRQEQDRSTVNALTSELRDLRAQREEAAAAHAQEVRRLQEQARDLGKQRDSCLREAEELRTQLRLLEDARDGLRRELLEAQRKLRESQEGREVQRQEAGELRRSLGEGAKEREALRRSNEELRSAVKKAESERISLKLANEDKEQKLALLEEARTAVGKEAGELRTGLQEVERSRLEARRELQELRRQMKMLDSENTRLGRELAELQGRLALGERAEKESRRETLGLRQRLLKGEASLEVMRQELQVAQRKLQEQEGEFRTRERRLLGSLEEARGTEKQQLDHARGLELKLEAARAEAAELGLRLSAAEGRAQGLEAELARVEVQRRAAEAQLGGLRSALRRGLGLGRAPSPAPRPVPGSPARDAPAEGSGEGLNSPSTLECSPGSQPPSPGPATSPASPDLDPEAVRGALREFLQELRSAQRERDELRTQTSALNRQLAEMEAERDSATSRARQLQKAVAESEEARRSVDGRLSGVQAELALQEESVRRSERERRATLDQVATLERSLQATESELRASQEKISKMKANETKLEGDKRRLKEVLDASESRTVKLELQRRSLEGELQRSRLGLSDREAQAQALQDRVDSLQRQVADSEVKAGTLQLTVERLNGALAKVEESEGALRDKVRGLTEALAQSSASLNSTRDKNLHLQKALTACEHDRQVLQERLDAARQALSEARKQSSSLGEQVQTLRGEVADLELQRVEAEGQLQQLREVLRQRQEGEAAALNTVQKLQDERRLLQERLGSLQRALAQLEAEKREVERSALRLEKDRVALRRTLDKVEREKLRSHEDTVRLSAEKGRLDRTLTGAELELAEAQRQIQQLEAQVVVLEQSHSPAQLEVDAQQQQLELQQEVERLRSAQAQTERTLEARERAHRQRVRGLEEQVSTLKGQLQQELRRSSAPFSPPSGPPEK

How the values were obtained:
Assay in all cases: log2 fold change, soluble protein after heating vs DMSO (PISA); higher = thermal stabilisation; K562 cells, 10 uM, 30 min; active = over 0.2 and 3.5 SD of the protein, either way, in both replicates (recomputed)
[1] = compound: CC1=C(C=C(C=C1)NC(=O)C2=CC(=CC=C2)C(C)(C)C#N)NC3=CC4=C(C=C3)N=CN(C4=O)C
Method in brief: (§1)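 Values are thermal stability changes relative to control samples and are taken from duplicates. They are stated as log2 fold changes. Before quantification by TMTpro 16plex LC-MS/MS with equalised channel sums, K562 cells at 2×10^6 cells/mL were treated with 10 μM compound for 30 min, heated in aliquots for 3 min across 48°C-58°C, pooled, extracted in PBS with 0.5% NP-40 at 4°C, and centrifuged at 21,000xg for 90 min to give the soluble supernatant.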

[2] = compound: CC1=C(C=C(C=C1)NC(=O)C2=CC(=CC=C2)N(C)C)NC(=O)C3=CC=C(C=C3)O
Method in brief: as §1

[3] = compound: CC1=CC=C(C=C1)SC2=C3C=C(SC3=CN=C2)C(=O)N
Method in brief: as §1

[4] = compound: CC1=NC(=CC=C1)C2=C(N=C(N2)C(C)(C)C)C3=CC4=NC=CN=C4C=C3
Method in brief: as §1

[5] = compound: CCCCN(Cc1ccc(C(=O)NO)cc1)C(=O)Nc1ccccc1 [Nexturastat A]
Method in brief: as §1

[6] = compound: CCCS(=O)(=O)Nc1ccc(F)c(C(=O)c2c[nH]c3ncc(-c4ccc(Cl)cc4)cc23)c1F [vemurafenib]
Method in brief: as §1

[7] = compound: CCCS(=O)(=O)Nc1ccc(F)c(C(=O)c2c[nH]c3ncc(Cl)cc23)c1F
Method in brief: as §1

[8] = compound: CCCc1cc(C)[nH]c(=O)c1CNC(=O)c1cc(-c2ccnc(N3CCN(C)CC3)c2)cc2c1cnn2C(C)C
Method in brief: as §1

[9] = compound: CCN(CC)Cc1ccc2cc(COC(=O)Nc3ccc(C(=O)NO)cc3)ccc2c1 [givinostat]
Method in brief: as §1

[10] = compound: CCN(CCCOc1ccc2c(Nc3cc(CC(=O)Nc4cccc(F)c4)[nH]n3)ncnc2c1)CCOP(=O)(O)O [barasertib]
Method in brief: as §1

[11] = compound: CC[C@@H]1C(=O)N(C)c2cnc(Nc3ccc(C(=O)NC4CCN(C)CC4)cc3OC)nc2N1C1CCCC1
Method in brief: as §1

[12] = compound: CC[C@@H]1C(=O)N(C)c2cnc(Nc3ccc(C(=O)N[C@H]4CC[C@H](N5CCN(CC6CC6)CC5)CC4)cc3OC)nc2N1C(C)C [volasertib]
Method in brief: as §1

[13] = compound: CC[C@H](C)N1C=C(C2=C(C=C(C=C21)C3=CN=C(C=C3)N4CCNCC4)C(=O)NCC5=C(C=C(NC5=O)C)C)C
Method in brief: as §1

[14] = compound: CC[C@H](C)[C@@H](C(=O)N[C@@H]([C@@H](C)O)C(=O)N[C@@H](CC(C)C)C(=O)[C@]1(CO1)C)NC(=O)[C@H]([C@@H](C)CC)N(C)C(=O)C [epoxomicin]
Method in brief: as §1

[15] = compound: CCn1c(C(=O)N(C2CC2)C2CC2)cc2c3c(ncn3C)c(Nc3cc(C)n(C)n3)nc21
Method in brief: as §1

[16] = compound: CCn1cc(-c2ccnc3[nH]c(-c4cccc(CN(C)C)c4)cc23)c(-c2ccc(NC(=O)N(C)C)cc2)n1
Method in brief: as §1

[17] = compound: CN(C)CC(=O)Nc1ccc2[nH]c(=O)c3ccccc3c2c1
Method in brief: as §1

[18] = compound: CN(CCOC1=CC=C(C=C1)C[C@H]2C(=O)NC(=O)S2)C3=CC=CC=N3 (racemic) [rosiglitazone]
Method in brief: as §1

[19] = compound: CN1C2=C(C3=C1C(=O)N(N=C3)CC4=CC(=CC=C4)N)SC(=C2)S(=O)C
Method in brief: as §1

[20] = compound: CN1CCC(CNc2ccc3ncc(-c4cccc(OC(F)(F)F)c4)n3n2)CC1
Method in brief: as §1

Measured: log2 fold change

CRBN (UniProt Q96SW2)
inactive: [1] -0.009 | [2] 0.021 | [3] -0.047 | [4] -0.027 | [5] 0.003 | [6] -0.016 | [7] -0.021 | [8] -0.089 | [9] -0.044 | [10] 0.014 | [11] 0.008 | [12] 0.005 | [13] 0.004 | [14] 0.046 | [15] -0.102 | [16] -0.025 | [17] -0.019 | [18] -0.001 | [19] -0.011 | [20] -0.013

CPNE2 (UniProt Q96FN4)
inactive: [1] -0.046 | [2] 0.038 | [3] 0.05 | [4] 0.058 | [5] 0.059 | [6] 0.066 | [7] 0.053 | [8] -0.064 | [9] -0.11 | [10] -0.022 | [11] 0.053 | [12] -0.127 | [13] 0.096 | [14] 0.063 | [15] -0.014 | [16] 0.074 | [17] 0 | [18] -0.006 | [19] 0.115 | [20] 0.098

COX11 (UniProt Q9Y6N1)
inactive: [1] -0.094 | [2] -0.077 | [3] -0.006 | [4] 0.086 | [5] -0.066 | [6] 0.027 | [7] 0.037 | [8] -0.047 | [9] -0.051 | [10] -0.006 | [11] 0.03 | [12] -0.073 | [13] 0.066 | [14] 0.004 | [15] 0.022 | [16] -0.069 | [17] -0.01 | [18] 0.051 | [19] 0.006 | [20] 0.019

CPNE3 (UniProt O75131)
inactive: [1] 0.024 | [2] -0.048 | [3] -0.036 | [4] 0.002 | [5] -0.026 | [6] -0.022 | [7] -0.014 | [8] -0.012 | [9] -0.027 | [10] 0.036 | [11] -0.005 | [12] -0.119 | [13] 0.016 | [14] 0.02 | [15] -0.007 | [16] -0.048 | [17] -0.016 | [18] -0.004 | [19] -0.069 | [20] 0.103

COPG2 (UniProt Q9UBF2)
inactive: [1] 0.033 | [2] -0.038 | [3] -0.002 | [4] -0.01 | [5] 0.028 | [6] 0.011 | [7] 0.018 | [8] 0.016 | [9] -0.012 | [10] 0.025 | [11] 0.006 | [12] -0.122 | [13] 0.022 | [14] -0.027 | [15] -0.022 | [16] -0.021 | [17] 0.009 | [18] 0.013 | [19] -0.061 | [20] 0.007

COMMD9 (UniProt Q9P000)
inactive: [1] -0.013 | [2] -0.082 | [3] -0.044 | [4] 0.13 | [5] -0.15 | [6] 0.124 | [7] -0.295 | [8] -0.014 | [9] 0.007 | [10] 0.054 | [11] 0.022 | [12] -0.242 | [13] -0.015 | [14] 0.147 | [15] 0.056 | [16] 0.015 | [17] -0.031 | [18] -0.011 | [19] -0.123 | [20] 0.05

CSNK1A1L (UniProt Q8N752)
inactive: [1] 0.031 | [2] 0.025 | [3] -0.019 | [4] 0.031 | [5] 0.004 | [6] -0.003 | [7] 0.052 | [8] 0.078 | [9] -0.017 | [10] -0.044 | [11] 0.008 | [12] -0.116 | [13] 0.054 | [14] -0.081 | [15] 0.042 | [16] -0.044 | [17] -0.165 | [18] -0.001 | [19] 0.031 | [20] 0.168

COPS7B (UniProt Q9H9Q2)
inactive: [1] -0.006 | [2] -0.037 | [3] 0.018 | [4] 0.042 | [5] 0.068 | [6] 0.021 | [7] 0.032 | [8] 0.003 | [9] -0.023 | [10] 0.041 | [11] -0.043 | [12] 0.018 | [13] 0.033 | [14] 0.076 | [15] -0.011 | [16] 0.035 | [17] 0.002 | [18] 0 | [19] -0.089 | [20] -0.007

COX7A2 (UniProt P14406)
inactive: [1] -0.039 | [2] -0.052 | [3] 0.004 | [4] 0.006 | [5] -0.252 | [6] -0.09 | [7] -0.039 | [8] -0.053 | [9] 0.018 | [10] 0.04 | [11] 0.038 | [12] -0.124 | [13] -0.087 | [14] 0.123 | [15] 0.068 | [16] -0.047 | [17] 0.072 | [18] -0.032 | [19] 0.059 | [20] 0.091

COPS6 (UniProt Q7L5N1)
inactive: [1] 0.051 | [2] -0.01 | [3] -0.012 | [4] 0.087 | [5] -0.078 | [6] 0.013 | [7] -0.005 | [8] -0.012 | [9] -0.119 | [10] -0.021 | [11] -0.02 | [12] -0.033 | [13] 0.007 | [14] 0.045 | [15] 0.002 | [16] -0.04 | [17] 0.018 | [18] 0.012 | [19] -0.002 | [20] 0.016

CPVL (UniProt Q9H3G5)
inactive: [1] -0.044 | [2] 0.047 | [3] -0.003 | [4] 0.008 | [5] -0.103 | [6] -0.004 | [7] 0.005 | [8] -0.189 | [9] 0.082 | [10] 0.035 | [11] 0.023 | [12] -0.196 | [13] -0.108 | [14] 0 | [15] -0.03 | [16] -0.011 | [17] -0.091 | [18] 0.143 | [19] -0.019 | [20] -0.275

CRIPT (UniProt Q9P021)
inactive: [1] 0.153 | [2] 0.045 | [3] 0.022 | [4] -0.068 | [5] 0.063 | [6] -0.044 | [7] -0.003 | [8] -0.06 | [9] 0.012 | [10] -0.053 | [11] 0.104 | [12] 0.112 | [13] 0.011 | [14] 0.086 | [15] 0.024 | [16] 0.068 | [17] 0.029 | [18] 0.019 | [19] 0.054 | [20] -0.015

COQ5 (UniProt Q5HYK3)
inactive: [1] -0.04 | [2] 0.054 | [3] 0.04 | [4] -0.012 | [5] 0.061 | [6] -0.033 | [7] -0.006 | [8] -0.035 | [9] -0.074 | [10] -0.05 | [11] -0.001 | [12] -0.079 | [13] -0.037 | [14] 0.019 | [15] 0.042 | [16] -0.04 | [17] -0.023 | [18] -0.008 | [19] -0.037 | [20] -0.152

COPS5 (UniProt Q92905)
inactive: [1] 0.029 | [2] 0.003 | [3] 0.028 | [4] 0.034 | [5] -0.117 | [6] 0.049 | [7] 0.098 | [8] -0.041 | [9] -0.003 | [10] 0.011 | [11] -0.021 | [12] 0.027 | [13] 0.013 | [14] 0.015 | [15] -0.003 | [16] 0.007 | [17] 0.011 | [18] 0.015 | [19] -0.119 | [20] -0.019

4 successive records out of the list so far, for reference:
COPS7B (UniProt Q9H9Q2)
inactive: [1] -0.006 | [2] -0.037 | [3] 0.018 | [4] 0.042 | [5] 0.068 | [6] 0.021 | [7] 0.032 | [8] 0.003 | [9] -0.023 | [10] 0.041 | [11] -0.043 | [12] 0.018 | [13] 0.033 | [14] 0.076 | [15] -0.011 | [16] 0.035 | [17] 0.002 | [18] 0 | [19] -0.089 | [20] -0.007

COX7A2 (UniProt P14406)
inactive: [1] -0.039 | [2] -0.052 | [3] 0.004 | [4] 0.006 | [5] -0.252 | [6] -0.09 | [7] -0.039 | [8] -0.053 | [9] 0.018 | [10] 0.04 | [11] 0.038 | [12] -0.124 | [13] -0.087 | [14] 0.123 | [15] 0.068 | [16] -0.047 | [17] 0.072 | [18] -0.032 | [19] 0.059 | [20] 0.091

COPS6 (UniProt Q7L5N1)
inactive: [1] 0.051 | [2] -0.01 | [3] -0.012 | [4] 0.087 | [5] -0.078 | [6] 0.013 | [7] -0.005 | [8] -0.012 | [9] -0.119 | [10] -0.021 | [11] -0.02 | [12] -0.033 | [13] 0.007 | [14] 0.045 | [15] 0.002 | [16] -0.04 | [17] 0.018 | [18] 0.012 | [19] -0.002 | [20] 0.016

CPVL (UniProt Q9H3G5)
inactive: [1] -0.044 | [2] 0.047 | [3] -0.003 | [4] 0.008 | [5] -0.103 | [6] -0.004 | [7] 0.005 | [8] -0.189 | [9] 0.082 | [10] 0.035 | [11] 0.023 | [12] -0.196 | [13] -0.108 | [14] 0 | [15] -0.03 | [16] -0.011 | [17] -0.091 | [18] 0.143 | [19] -0.019 | [20] -0.275

The listing continues:

CRELD1 isoform 2 (UniProt Q96HD1)
inactive: [1] -0.069 | [2] -0.124 | [3] 0.02 | [4] 0.065 | [5] -0.104 | [6] -0.272 | [7] -0.087 | [8] -0.26 | [9] -0.057 | [10] 0.169 | [11] 0.167 | [12] 0.025 | [13] -0.243 | [14] -0.17 | [15] -0.137 | [16] -0.091 | [17] -0.183 | [18] 0.115 | [19] -0.009 | [20] 0.087

CROCC (UniProt Q5TZA2)
inactive: [1] 0.008 | [2] 0.043 | [3] 0.005 | [4] -0.01 | [5] -0.165 | [6] -0.009 | [7] -0.009 | [8] 0.016 | [9] 0.042 | [10] 0.046 | [11] 0.005 | [12] 0.027 | [13] -0.001 | [14] -0.022 | [15] -0.104 | [16] -0.016 | [17] 0.035 | [18] 0.027 | [19] -0.046 | [20] 0.03
